# Screening data

Source: PubChem BioAssay AID1159506 (NCATS, 2015).

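Genome-wide siRNA knockdown in TC32 Ewing sarcoma cells, comparing luciferase light from an NR0B1-promoter reporter with a CMV-promoter reporter 48 hours after transfection.
Each siRNA was applied at 20 nM.
A z-score of the log NR0B1-over-CMV signal, less the median of siRNAs with the same seed; more negative means a stronger specific loss of the NR0B1 reporter.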

This is part of the screen; most of the strongest results are not listed here.
Sequences are the guide (antisense) strand, without overhang.

| # | strand | gene | seed-corrected z-score |
|---|---|---|---|
| 1 | `UGUUGACUGAGACAAGUUG` | STXBP4 | 0.02056 |
| 2 | `AUAGCUUCGGUGCUUAUUC` | TMEM136 | 0.4308 |
| 3 | `UUCUCGUUCAUCAAAGCCU` | PNMAL2 | -0.2473 |
| 4 | `UUGCGAACAAAUCGUCUCC` | NBEA | 0.3187 |
| 5 | `UCUCAUGCAGUCGCUGUCG` | SURF6 | -0.4417 |
| 6 | `UAACGGACUCCGAACAAUC` | C5orf42 | 0.3173 |
| 7 | `AUAGUACUGGUUGAAAUUC` | ACSBG2 | -0.5366 |
| 8 | `AUCUUGUAGACCGUAGCCG` | LHFPL4 | 0.7664 |
| 9 | `UUUCCUAAAAGUGCCCUGG` | SYNGR2 | 0.1669 |
| 10 | `UCAGAGAUCUUGAAGAGCG` | NAB2 | 0.1766 |
| 11 | `UCUCUCCCAAGUUCUGUCC` | GAS2L2 | -0.2228 |
| 12 | `UAUAUUGUGGUUACACUUG` | MIER3 | 0.475 |
| 13 | `AUUGGUAAAAGGCCGAUUG` | KIF22 | 0.00941 |
| 14 | `UAUGGUGGUGAAAAGCUCG` | SRD5A2 | 0.4028 |
| 15 | `UGACUUACGUGACAGAUUG` | EXTL3 | -0.04401 |
| 16 | `UUGUUGGAGAUUUAGUUGG` | RASGRF1 | 0.3987 |
| 17 | `UCAGUUCUGUCGGAUCUGC` | P2RY2 | -1.003 |
| 18 | `UAAUCGAACUGUAUUAUCC` | TAF5 | 0.7154 |
| 19 | `UACUGAGCACAAUUGCUGC` | HLA-L | 0.1129 |
| 20 | `UUCUUGACACGUUCCAGCC` | CEP164 | 0.1727 |
| 21 | `UCUUGUUUUGUGAUGGGCU` | LILRA1 | -0.05653 |
| 22 | `UAUGUUAAUCAGGAAGAUC` | OR2T6 | -0.03694 |
| 23 | `UUCAGGUCCAUGAAUGGGA` | NUP210P1 | -0.3384 |
| 24 | `UUUAGAUCCUUAGAUGAGU` | KITLG | -0.754 |
| 25 | `UAUGAUGAGAUCUUCGUGG` | RLIM | -1.177 |
| 26 | `AAAGAUGGUGAUACGCUCG` | NLGN2 | 0.003053 |
| 27 | `UUUUCUCCGUCCUUUAUUU` | ANKRD36C | 1.253 |
| 28 | `UUUCGUACUUCCCAUGAGG` | LINC00864 | 0.09019 |
| 29 | `AAUGGAGACAGCUAAGAGC` | CTF1 | -0.1787 |
| 30 | `UGAGCAUGUAGAAAAUGCC` | OR13C4 | -0.3229 |
| 31 | `UAACAAUAAGGAUAAGAUC` | OR56A4 | 0.2119 |
| 32 | `UCUCAUUCCACACCGCUGG` | LHPP | 0.0896 |
| 33 | `AACUGGGUAAACACUAGGC` | MRPS35 | 0.3178 |
| 34 | `UCUGAUACUGUUCAUAACC` | BMS1 | -0.6221 |
| 35 | `UCCUGUUGAGCUUGGAUUC` | SPATA41 | 0.589 |
| 36 | `UAUGGGUUGGACAUGGAGG` | FOSL2 | 0.1014 |
| 37 | `AUACGUUCACCACUCUCCC` | CBR1 | 0.3821 |
| 38 | `UUAGGGACCUGUCGUAAUG` | TMEM119 | -0.4007 |
| 39 | `UUCGGAAGUGUUCAUAUUG` | MED31 | 0.6912 |
| 40 | `UCCCAGUUAAUCAAAGGUU` | TBC1D22A-AS1 | 0.7526 |
| 41 | `UGAAUCACAUUGGACAUGC` | OR5B17 | 0.7239 |
| 42 | `UUCCCGUCAACUGUCAGUG` | ZNF518B | -0.4879 |
| 43 | `UAGUGUGCAACUGACAGUC` | THOC6 | 0.2788 |
| 44 | `AAAGUUACGAAACCAAAUC` | RBFOX1 | 0.5231 |
| 45 | `AGAAUUAGUGCUGUCAUCC` | FGF14 | -0.2407 |
| 46 | `UUUCUUAUGGGUAUAACUG` | ZNF180 | 0.136 |
| 47 | `UCUUCUGCAAGUUUCGGAC` | GOLGA1 | -0.9683 |
| 48 | `UUCAAGUUCACCACGAACU` | TMEM229B | 0.2934 |
| 49 | `UGACUUCCAAAUUCACAGG` | MRO | 0.3839 |
| 50 | `UCGUUUCUCAAAUCUUCGC` | VPS4B | 0.2657 |
| 51 | `UCUUCUAAAACAGUUCGCC` | CCNB2 | -0.1923 |
| 52 | `UCUUGAAUCAGGUCCCAUG` | FCER2 | -0.6565 |
| 53 | `UAUGUGAUCGAGAGGAUAC` | UQCRHL | 0.6577 |
| 54 | `UAUGACCAGACAAACAUUG` | ZDHHC2 | -0.9514 |
| 55 | `UUUGCGAUGACAAUUGUCC` | FAT3 | 0.01984 |
| 56 | `UCCCAUUAAAGUCAAAGAG` | CRK | 0.4424 |
| 57 | `ACUGUGAUGAGGUCAUGCC` | RNASE7 | 0.9038 |
| 58 | `UUCUAGACCAUUGACUGCG` | NT5C1B | -0.772 |
| 59 | `UUAGUAAGCAUUCUGAACA` | TAS2R14 | -0.2811 |
| 60 | `UUUGUUCUCCAAUCACUAC` | TCTEX1D2 | -0.3566 |
| 61 | `UAUAUGUCCGAAUUCGCUC` | MTRF1 | -0.2446 |